# PubChem BioAssay AID1053208 – Peter MacCallum Cancer Centre | 2014
# Aim: 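Genes whose silencing cuts survival of bone tumour cells only with doxorubicin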 (primary screen)
# Cell system: mouse osteosarcoma cells, early-passage culture from an engineered mouse model of fibroblastic bone tumour
# Reagent: siRNA pool against mouse genes, 40 nM
# Duration: about 120 h (48 h before drug, then 72 h with drug)
# Conditions: doxorubicin 100 nM for 72 h, roughly 30-40% inhibitory dose
# Measured: 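Viability read as ATP luminescence after 72 h of 100 nM doxorubicin or none, duplicate wells averaged, scaled to non-targeting siRNA, then expressed as robust z-scores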
# Scale: viability z-score with doxorubicin: higher = more viable cells under doxorubicin; viability z-score without drug: higher = more viable cells with knock-down alone; z-score of drug to no-drug ratio: higher = less drug sensitisation by knock-down
# Rule for the call: 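a pool counts as active when its viability z-score with doxorubicin is -2 or below and its z-score without drug lies between -2 and 2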
# The whole screen tested about 17,000 reagents; below is a random part of them. Over the whole deposit, 788 (4.7%) were called active. 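Calls rest on z-score classes alone; an extra cut-off of viability at most 70% of control was not applied to them.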 The numbers tell different reagents against one gene apart. Some reagents were tested in more than one well and are listed for each. Not all columns of the deposit are shown.
gene symbol,reagent,combined z-score class,viability z-score with doxorubicin,viability z-score without drug,z-score of drug to no-drug ratio,activity call
Npas1 (neuronal PAS domain protein 1),1,no change with or without drug,1.01,0.34,0.9,inactive
Npr1 (natriuretic peptide receptor 1),1,no change with or without drug,1.35,0,1.57,inactive
Npr1 (natriuretic peptide receptor 1),1,high cell count without drug only,0.45,2.36,-0.9,inactive
Ankfn1 (ankyrin-repeat and fibronectin type III domain containing 1),1,no change with or without drug,-0.45,0,-0.34,inactive
Eomes (eomesodermin),1,no change with or without drug,1.12,-0.67,1.8,inactive
"Klra5 (killer cell lectin-like receptor, subfamily A, member 5)",1,no change with or without drug,1.12,1.35,0.34,inactive
Tango2 (transport and golgi organization 2),1,no change with or without drug,0,0.17,0,inactive
Fgf22 (fibroblast growth factor 22),1,no change with or without drug,0.11,0.34,0,inactive
"Atp6v0a4 (ATPase, H+ transporting, lysosomal V0 subunit A4)",1,no change with or without drug,-0.9,0.51,-1.12,inactive
Msantd2 (Myb/SANT-like DNA-binding domain containing 2),1,no change with or without drug,0.22,-0.34,0.56,inactive
F12 (coagulation factor XII (Hageman factor)),1,low cell count without drug only,-1.69,-3.04,0.56,inactive
Or5d36 (olfactory receptor family 5 subfamily D member 36),1,no change with or without drug,0,-0.17,0.22,inactive
"Rs1 (retinoschisis (X-linked, juvenile) 1 (human))",1,no change with or without drug,-1.12,-1.18,-0.34,inactive
"Kcnq3 (potassium voltage-gated channel, subfamily Q, member 3)",1,no change with or without drug,0.45,1.18,-0.22,inactive
"Moxd2 (monooxygenase, DBH-like 2)",1,no change with or without drug,0.22,0.67,-0.11,inactive
Irx6 (Iroquois homeobox 6),1,no change with or without drug,-0.67,-0.84,0,inactive
Cdk9 (cyclin dependent kinase 9),1,no change with or without drug,-1.12,-1.85,0.22,inactive
Hsd11b1 (hydroxysteroid 11-beta dehydrogenase 1),1,no change with or without drug,-1.24,-0.84,-0.67,inactive
Mpv17l2 (MPV17 mitochondrial membrane protein-like 2),1,no change with or without drug,0.67,-0.51,1.24,inactive
Nans (N-acetylneuraminic acid synthase (sialic acid synthase)),1,high cell count with doxorubicin only,2.81,1.35,2.02,inactive
Pkn2 (protein kinase N2),1,no change with or without drug,-1.35,-1.18,-0.56,inactive
Rbfa (ribosome binding factor A),1,no change with or without drug,0.11,-1.35,1.24,inactive
Or2a57 (olfactory receptor family 2 subfamily A member 57),1,no change with or without drug,-1.35,-0.17,-1.24,inactive
"Echs1 (enoyl Coenzyme A hydratase, short chain, 1, mitochondrial)",1,no change with or without drug,-0.45,0.51,-0.67,inactive
"Cacna2d2 (calcium channel, voltage-dependent, alpha 2/delta subunit 2)",1,no change with or without drug,-0.56,1.18,-1.24,inactive
"Cyp2c40 (cytochrome P450, family 2, subfamily c, polypeptide 40)",1,no change with or without drug,0,0.51,-0.22,inactive
"Tpra1 (transmembrane protein, adipocyte asscociated 1)",1,no change with or without drug,-1.57,-1.01,-0.9,inactive
Spmap2 (sperm microtubule associated protein 2),1,no change with or without drug,-0.67,1.35,-1.46,inactive

Reformatted: entries from further up.
| gene symbol | reagent | combined z-score class | viability z-score with doxorubicin | viability z-score without drug | z-score of drug to no-drug ratio | activity call |
| --- | --- | --- | --- | --- | --- | --- |
| Fgf22 (fibroblast growth factor 22) | 1 | no change with or without drug | 0.11 | 0.34 | 0 | inactive |
| Atp6v0a4 (ATPase, H+ transporting, lysosomal V0 subunit A4) | 1 | no change with or without drug | -0.9 | 0.51 | -1.12 | inactive |
| Msantd2 (Myb/SANT-like DNA-binding domain containing 2) | 1 | no change with or without drug | 0.22 | -0.34 | 0.56 | inactive |
| F12 (coagulation factor XII (Hageman factor)) | 1 | low cell count without drug only | -1.69 | -3.04 | 0.56 | inactive |
| Or5d36 (olfactory receptor family 5 subfamily D member 36) | 1 | no change with or without drug | 0 | -0.17 | 0.22 | inactive |

Next entries:
gene symbol,reagent,combined z-score class,viability z-score with doxorubicin,viability z-score without drug,z-score of drug to no-drug ratio,activity call
Crtac1 (cartilage acidic protein 1),1,no change with or without drug,0.45,0.84,0,inactive
Gcm1 (glial cells missing homolog 1),1,no change with or without drug,0.34,0.51,0.11,inactive
Tcp10a (t-complex protein 10a),1,no change with or without drug,-0.45,0,-0.34,inactive
Tcp10a (t-complex protein 10a),2,no change with or without drug,-0.22,1.01,-0.79,inactive
Fez1 (fasciculation and elongation protein zeta 1),1,no change with or without drug,-0.67,0.51,-0.9,inactive
"Tst (thiosulfate sulfurtransferase, mitochondrial)",1,high cell count without drug only,1.01,2.36,-0.45,inactive
Spout1 (SPOUT domain containing methyltransferase 1),1,no change with or without drug,-0.9,0.17,-0.9,inactive
Aprt (adenine phosphoribosyl transferase),1,no change with or without drug,0,-1.69,1.46,inactive
Vmn1r222 (vomeronasal 1 receptor 222),1,high cell count with and without drug,2.02,2.19,0.67,inactive
Slc31a2,1,low cell count with doxorubicin only,-2.02,-1.52,-1.12,active
Fchsd2 (FCH and double SH3 domains 2),1,no change with or without drug,0,-0.84,0.67,inactive
Wnk3 (WNK lysine deficient protein kinase 3),1,no change with or without drug,1.12,1.69,0.11,inactive
Ntm (neurotrimin),1,no change with or without drug,0.45,0,0.56,inactive
Psma3 (proteasome subunit alpha 3),1,low cell count with doxorubicin only,-6.18,-1.35,-5.96,active
Pld3 (phospholipase D family member 3),1,no change with or without drug,-0.45,-0.84,0.22,inactive
Or8g35 (olfactory receptor family 8 subfamily G member 35),1,no change with or without drug,0.11,-0.51,0.56,inactive
Vmn1r69 (vomeronasal 1 receptor 69),1,no change with or without drug,-1.01,-0.84,-0.45,inactive
Khdrbs3,1,low cell count with doxorubicin only,-2.14,-1.85,-1.01,active
Saa1 (serum amyloid A 1),1,no change with or without drug,1.12,-0.51,1.69,inactive
Npas2 (neuronal PAS domain protein 2),1,no change with or without drug,0.56,-0.84,1.35,inactive
Nfs1 (nitrogen fixation gene 1 (S. cerevisiae)),1,no change with or without drug,-0.11,0.17,-0.11,inactive
Cdk17 (cyclin dependent kinase 17),1,no change with or without drug,-1.12,-1.85,0.22,inactive
Or5p68 (olfactory receptor family 5 subfamily P member 68),1,no change with or without drug,0.11,0.17,0.11,inactive
Cd99 (CD99 antigen),1,no change with or without drug,1.12,1.18,0.45,inactive
"Gprc5c (G protein-coupled receptor, family C, group 5, member C)",1,high cell count with doxorubicin only,2.02,1.52,1.12,inactive
Rdh5 (retinol dehydrogenase 5),1,no change with or without drug,-0.9,-0.84,-0.22,inactive
Aplp1 (amyloid beta precursor like protein 1),1,no change with or without drug,-0.22,0.51,-0.45,inactive
Ash2l (ASH2 like histone lysine methyltransferase complex subunit),1,no change with or without drug,-1.91,-0.84,-1.35,inactive
Psme2,1,no change with or without drug,0.9,0.84,0.45,inactive
"Alox12b (arachidonate 12-lipoxygenase, 12R type)",1,high cell count with doxorubicin only,2.59,1.18,1.91,inactive
Il1rn (interleukin 1 receptor antagonist),1,no change with or without drug,-0.22,0.34,-0.34,inactive
Rftn1 (raftlin lipid raft linker 1),1,no change with or without drug,0.56,1.01,0,inactive
"Clec10a (C-type lectin domain family 10, member A)",1,no change with or without drug,-0.45,-0.17,-0.22,inactive
"Cga (glycoprotein hormones, alpha subunit)",1,no change with or without drug,-0.56,0.17,-0.56,inactive
Matn2 (matrilin 2),1,no change with or without drug,-0.45,0.17,-0.45,inactive
